Test results: publication doi:10.1101/2022.05.16.492129
No constants are given. Whether binding was seen depends on the method and setting. For some assays here: A result given as binding can be weak or reduced; the word gives no strength. Sequences can lack the tags named with a protein.

Columns and labels:
Assay in all cases: flow cytometry on cells
[1] = molecular target: zebrafish Fzd3b eGFP fusion (zebrafish)
[2] = molecular target: zebrafish Fzd4 eGFP fusion (zebrafish)
[3] = molecular target: zebrafish Fzd2 eGFP fusion (zebrafish)
[4] = molecular target: zebrafish Fzd1 eGFP fusion (zebrafish)
[5] = molecular target: zebrafish Fzd7a eGFP fusion (zebrafish)

binding [1]: no binding | binding [2]: no binding | binding [3]: binds | binding [4]: binds | binding [5]: binds
B1: zebrafish Cachd1 ectodomain prey protein, FLAG-tagged (domain or fragment, UniProt E7F5Q0 49-1108)
chain: DSEFSILEEAQVLAVQMKKLSTQELGVLTMQRIFNSFVYTEKTSNGETEVQQLAKKIREKFNRYLDVVNRNKQVVEASYTAHLTSPLTAIQDCCSIPPSMMEFDGNFNANVSKTVSCDRLSPTVNSRAFNPGRDLNSVLADNLKSNPGIKWQYFSSEEGIFTLFPAHKFHCKGTFEHRSRPVYVAAVRPQSKHIVVIIDHGASVTETQLQIARDAALVILNSIDEHDKISVLTIADTVRSCSLDQCYKSFLSPATSETKRKMSTFISNIKASDSSTQHAVGFQKAFQLLRNTSNVTRQLTNTDMMIIYLSSGITSRDSSEHEKRATLSAVKEENRHLNNSVMILTYALMNDGVTGLKELAFLRDLAEQNSLKYGVQDRSALPVVKGSMMVLNQLSNLETTVGRFYINLPNRMIDVATFSLPYADQMGDGFIMTVSRPCYFGNLLLGVVGVDVNLAYILEDVTYYQDSLASYTFLIDNKGYTLMHPSLTRPYLMTEAPLHTDIIHYENIPGFPVVRQNILSLPLGSQVIAVPVNSSLSWHMNRLRDPNRDAYNVSYAWKLVQDTSFILCIVYVQPEIPVKQLKNLNTAPSSKLLYHRLDLLGQPSSCLHFKQLATVESPTVMLSAGSFSSPYEHLSQPETKRMVEHYTAYLSDNTRLIANPGLKSSVRNEVMATSHVTDEWMSLMEMSSLNCYIVRRYIATPNGVLRIYPGSLMDKAFDPTRRQWYLHAVANPGLITFTGPYLDVGGAGYVVTISHTIHAPSSQMASGYTVAVMGIDFTLRYFYKVLLDLLPICNQDKGNKIRCFIMEDRGYLVAHPTLIDPKGHAPAEQQHITHKEPLVANDILNHPNFVKKNLCNSFSDRTVQRFYKFNTSIVGDLTNLVHGSHCSKYRLTRIPGTNAFAGIVNETCDALAFCACSTVDRLCLNCHRMEQNECECPCECPLEVNECTGNLTNAENRNPSCDVHQEPLSLTVIEPSLQDTLPQCINTRCSQRFTSSDCFGVLDCEWCMVDSDGKTHLDKPYCALQKECFGGIVGAKSPYVDGMGILDEELASLNMIKSAP
